Source: PubChem BioAssay AID1259299 (Sanger Institute, 2017)
Shown is an unselected part of 794 reagents. 9 of all reagents (1.1%) count as active. 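Calls rest on knock-down alone; synergy scores play no part in calls, and no gene passed the synergy cut.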 Not all columns of the deposit are shown. The record does not give: the amount of reagent, the time to read-out.

Aim: 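Essential genes and drug-synergistic partners among kinases and colorectal mutation genes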 (primary screen)
Cell system: human CAR1 colorectal cancer cells
Reagent: siRNA pool against human genes
Conditions: anchor drug BYL719 1 µM, cetuximab 5 µg/ml or trametinib 10 nM, or DMSO vehicle alone; exposure length not given
Measurement: 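Mean replicate viability versus non-targeting controls, turned into robust z-scores, plus drug synergy scores for BYL719, cetuximab and trametinib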
Scale: viability robust z-score, knock-down alone: higher = more viable cells
Hit rule: 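Essential when viability robust z-score with knock-down alone (DMSO) is below -3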
Meaning of the calls: active = essential (knock-down alone); inactive = no change

| Target gene | viability robust z-score, knock-down alone | Call |
| --- | --- | --- |
| EEF2K | -2.16 | inactive |
| AURKC | -1.76 | inactive |
| CSNK1A1L | 0.789 | inactive |
| STK32C | 0.718 | inactive |
| CHKB | 0.086 | inactive |
| CKS2 | 0.249 | inactive |
| MARK2 | 0.4 | inactive |
| TSSK3 | 0.0677 | inactive |
| CSNK1G3 | 0.789 | inactive |
| TBX3 | 0.789 | inactive |
| ROS1 | -0.498 | inactive |
| TLK2 | 0.574 | inactive |
| GUK1 | 0.789 | inactive |
| IKBKE | -0.221 | inactive |
| PRKCH | -1.51 | inactive |
| STK38 | -0.238 | inactive |
| CDK2 | 0.534 | inactive |
| EPHB2 | 0.789 | inactive |
| CDK9 | -0.138 | inactive |
| MARK3 | -2.19 | inactive |
| GRK5 | 0.615 | inactive |
| MAP3K19 | 0.218 | inactive |
| STYK1 | -0.475 | inactive |
| ROCK2 | 0.289 | inactive |
| FRK | -0.791 | inactive |
| CDK10 | 0.0193 | inactive |
| CHEK1 | -1.39 | inactive |
| MUSK | -1.79 | inactive |
| GOLGA5 | 0.789 | inactive |
| ASPM | 0.789 | inactive |
| DCLK2 | 0.789 | inactive |
| TBCK | 0.47 | inactive |
| TP53RK | 0.789 | inactive |
| MYLK | 0.789 | inactive |
| RIOK3 | 0.609 | inactive |
| STAG2 | 0.789 | inactive |
| LRRK1 | 0.691 | inactive |
| MAGI3 | 0.721 | inactive |
| GUCY2C | 0.611 | inactive |
| TTBK2 | 0.756 | inactive |
| RIOK2 | 0.00315 | inactive |
| PKDCC | 0.789 | inactive |
| TTBK1 | 0.39 | inactive |
| PIP4K2B | 0.215 | inactive |
| CSF1R | -1.53 | inactive |
| TRIM27 | 0.789 | inactive |
| FLT4 | -0.167 | inactive |
| MAP3K8 | 0.387 | inactive |
| WNK1 | 0.789 | inactive |
| PI4K2B | -1.3 | inactive |

Not a retest: an excerpt of the list.
| Target gene | viability robust z-score, knock-down alone | Call |
| --- | --- | --- |
| GUK1 | 0.789 | inactive |
| IKBKE | -0.221 | inactive |
| PRKCH | -1.51 | inactive |
